# Primary screen of a compound library

By UniProt entry, the sequences of proteins in these tests, tags left out. Residues count along the entry.
UniProt A4I591, 1-473: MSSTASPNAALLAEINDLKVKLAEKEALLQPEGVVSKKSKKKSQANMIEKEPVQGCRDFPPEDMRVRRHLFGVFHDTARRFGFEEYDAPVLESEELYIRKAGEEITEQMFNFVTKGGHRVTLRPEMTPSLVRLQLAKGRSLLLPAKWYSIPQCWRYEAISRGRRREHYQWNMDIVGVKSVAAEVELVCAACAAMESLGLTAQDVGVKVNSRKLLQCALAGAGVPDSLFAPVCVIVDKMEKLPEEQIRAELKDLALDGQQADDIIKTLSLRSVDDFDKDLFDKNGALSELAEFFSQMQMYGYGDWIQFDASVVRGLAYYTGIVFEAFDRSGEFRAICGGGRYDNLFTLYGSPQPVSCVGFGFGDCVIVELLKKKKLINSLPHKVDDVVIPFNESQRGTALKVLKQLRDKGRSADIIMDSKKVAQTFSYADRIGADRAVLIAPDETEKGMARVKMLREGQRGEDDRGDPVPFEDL

Data taken from ChEMBL document CHEMBL3988442, “University of Dundee, Small-Polar-MMV Screening Library” (2021).

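Enzyme assay of histidyl-tRNA synthetase; the read-out is not stated. Target: Histidine-tRNA ligase, Leishmania infantum (UniProt A4I591). Concentration: 30 µM. Higher reads as stronger inhibition (inferred: compounds with an IC50 in retests scored well above the rest). The assay is labelled LdHisRS but filed under L. infantum. About 69,000 compounds were tested under these conditions; 0.6% (about 410) showed 50% or more at least once.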

The filed quantity is “Percent Effect” (%).
The controls that fix the scale are not given in the record; negative values are as filed.
This is an unselected part of the compounds tested.

Result for CCC(=O)N1CCCC(c2cc(Nc3ncccn3)nc(C)n2)C1 (configuration not stated) was 13.89%. With O=C(NCc1cnc2n1CCN(Cc1ccsc1)CC2)C1CCC1 the screen gave 24.53%. CCN(CC)c1ncnc2c1CCN(c1ccc(C)nn1)CC2 read 11.71%. Cc1cc(C(=O)N2CCN(c3nc4c(C(C)C)cccc4s3)CC2)no1 gave 21.74%. Result for COc1c(CNCc2ccc(N3CCOCC3)nc2)c(C)nn1C was 2.667%. COc1ccccc1OCCN1CCC(N2CCNC2=O)CC1 gave -6.154%.

Cn1cnnc1C1CCN(C(=O)CCCOc2ccccc2F)CC1 read 10.96%. For CC(C)OCc1ncn2c1CN(Cc1ccc(F)cc1)CCC2 the result was 10.53%. Result for O=C(c1cn2ccsc2n1)N1CCOCC(O)(CN2CCCC2)C1 (configuration not stated) was 13.43%. Result for CC(C)n1nc2c(cc1=O)CN(Cc1nc(-c3ccco3)no1)CC2 was 2.667%. O=C(c1ccoc1)N1CCC2(CC1)COC(COCc1ccccn1)C2 (configuration not stated) read 3.947%. With CCCc1nnnn1Cc1cn2c(C)cccc2n1 the screen gave 12.8%.

With COc1cccc(CN2C[C@@H](F)[C@@H](OCc3nc4cnccc4[nH]3)C2)c1 the screen gave 13.51%. CCOC(=O)N1CCC(OC)c2ccccc2N(CC(=O)NC)C(=O)C1 (configuration not stated) read 16.33%. Cc1nn(C)c(C)c1NC(=O)CN1CCCC1c1noc(C2CC2)n1 (configuration not stated) gave 13.46%. CCc1nc(C2CCCN(c3ncccn3)C2)no1 (configuration not stated) gave -28.57%. Result for O=C(c1scc2c1OCCO2)N1CCC(Cc2cccc(CO)c2)C1 (configuration not stated) was 19.67%. With Cc1c(C(C)NC2CSCCSC2)cnn1-c1ccc(F)cc1F (configuration not stated) the screen gave 7.895%.

Brc1ccc(-c2nnc(CN(Cc3cccs3)CC3CCCO3)o2)s1 (configuration not stated) read 15.32%. Result for COc1cc(N2C[C@H]3OCC[C@H]3[C@H](C(=O)N3CCCC3)C2)ncn1 was 1.613%. For O=C(COCc1ccccc1)NCc1ccc(O)c(F)c1 the result was 6.218%. For c1cc(N2CCC(c3nnc(Cn4ccnc4)n3C3CC3)CC2)ccn1 the result was 3.333%. Result for CCC(NC(=O)C1CCN(C(C)C)CC1)c1cn2cccnc2n1 (configuration not stated) was 12.86%. Result for CCCc1cc(CNc2cc(CCC)nc3ccnn23)on1 was 25.71%.

Result for CS(=O)(=O)c1ccc(CNC(=O)N2CCC(c3ccccc3)CC2)cc1 was 10.11%. With O=C(c1ccccc1)N1C[C@@H]2CC[C@H](C1)N(Cc1cc(F)ccc1Cl)C2 the screen gave 24.8%. O=C(NC(Cc1ccsc1)c1nccs1)C1CCOCC1 (configuration not stated) gave 11.11%. Result for O=C(CN1CCCC1Cn1cncn1)Nc1ccnn1C1CCCC1 (configuration not stated) was 13.58%. CS(=O)(=O)NC[C@]12COC[C@H]1CN(C(=O)C1CC(F)(F)C1)C2 gave -77.27%. With Cc1cccc(NC2CCN(C(=O)Nc3cc(F)ccc3F)CC2)n1 the screen gave 8.929%.

O=C(NCc1ccccc1)c1nn(C2CCS(=O)(=O)C2)c2c1CCCC2 (configuration not stated) gave -5%. CN(Cc1cc(Br)cn1C)C(=O)c1cscn1 gave 7.937%. Cc1ccc(-c2cc(C3CCNCC3)nc(C)n2)cc1 gave 12.77%.

Repeated from the top, 2 entries:

CCC(=O)N1CCCC(c2cc(Nc3ncccn3)nc(C)n2)C1 (configuration not stated) read 13.89%.
O=C(NCc1cnc2n1CCN(Cc1ccsc1)CC2)C1CCC1 read 24.53%.